US10150984B2, “Tyrosine kinase biosensors and methods of use” (Purdue Research Foundation, priority 2012, dated 2018)
Like-named read-outs stand apart in the source and are kept apart here.

Experiment: Tb3+ binding affinity and stoichiometry by sensitized luminescence
[1] = unphosphorylated vs phosphorylated form

Substance	fold weaker Tb3+ binding than the phosphorylated peptide [fold]	fold weaker Tb3+ binding than the phosphorylated peptide [1] [fold]
DEEDYEEPDEP [SAStide]	5	
GGEEDEDIYEELDEPGGKbiotinGG [SFAStide-A]		5
GGDNEGDVYDFVEDGGKbiotin (GGDNEGDVYDFVEDGGKGG; C-terminal lysine biotin; MUTAGEN (17)..(17) Biotinylated Lysine) [SFAStideB, Src family artificial substrate peptide B]		1.4
